Measurements as given in patent publication US20060211117.

Molecular target: T1, Cre recombinase (UniProt P06956)
T1 sequence (looked up, limits assumed): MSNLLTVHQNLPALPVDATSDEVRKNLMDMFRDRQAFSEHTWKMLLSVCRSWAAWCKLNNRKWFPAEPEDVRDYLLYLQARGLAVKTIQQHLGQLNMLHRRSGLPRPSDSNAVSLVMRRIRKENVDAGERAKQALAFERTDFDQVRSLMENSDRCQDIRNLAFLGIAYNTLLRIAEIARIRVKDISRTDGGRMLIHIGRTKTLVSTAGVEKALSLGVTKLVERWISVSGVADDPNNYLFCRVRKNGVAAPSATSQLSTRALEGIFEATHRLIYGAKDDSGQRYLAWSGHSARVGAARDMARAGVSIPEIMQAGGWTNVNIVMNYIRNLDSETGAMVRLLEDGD
Experiment: activity in cells
Details: recombines with N2; higher minicircle yield than wild type loxP; protein in cells; variant of loxP wild type (pDlox3/pNIXluc); only the site is given

With “TACCGTTCGTATAGCATACATTATACGAAGTTAT (double strand) [mutant loxP single-element site 2 (pFIXluc/pMlox)]” the “activity on this sequence” value was “active”.

Protein sequences can lack the tags named with them.
